A short description of data set [1]: general procedure: Fmoc solid-phase peptide synthesis; PAL amide resin (0.53 mmol/g). The following applies: whole synthesis, overall, scale of the general procedure 0.1 mmol.
Data set [2] can be described thus: general procedure: Fmoc solid-phase peptide synthesis; PAL amide resin. Conditions: whole synthesis, scale 0.1 mmol.

As to “cyclo(CH2CO-Adi^1-Leu^2-Tyr^3-Glu^4-Asn^5-Val^6-Gly^7-Met^8-Tyr^9-Cys)-amide”, in data set [1], the isolated yield entry was “overall yield of 40%”.

As to “cyclo(CH2CO-Gla^1-Leu^2-Tyr^3-Glu^4-Asn^5-Val^6-Gly^7-Met^8-Tyr^9-Cys)-amide”, in data set [2], the isolated yield was determined as 30% yield.

Source of the values: patent publication US7259142B2 (The United States of America, represented by the Secretary, …, priority 1999, dated 2007).
